PubChem BioAssay AID1508597 – Cure First, 2020
In all, the deposit lists about 2,100 reagents; below is a random part of them. 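Calls flag viability under 80% in either arm, not effects specific to rucaparib; the reference for percent is not stated.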 Reagent sequences are not shown. Not given: the 100% reference.

Aim: 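Genes whose silencing sensitises or protects ovarian cancer cells against rucaparib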 (primary screen)
Cells: human ovarian carcinoma lines grown from tumours: OCI-P5x (papillary serous) and OCI-C5x (clear cell)
Reagents: siRNA pool against human genes, 1.25 pmol siRNA per well
Duration: 72 h or 96 h, depending on the cell culture
Challenge: rucaparib 20 µM (about IC30) or vehicle, present until read-out
Measurement: 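ATP luminescence measured at 72 or 96 h according to the culture, then normalised and expressed as percent viability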
Reading the numbers: viability, normalised: higher = more viable cells remaining
Active means: 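Active when normalised viability falls below 80 percent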
Meaning of the calls: active = viability under 80%; inactive = viability 80% or more

gene knocked down,rucaparib or vehicle,cell line,technical replicate,"viability, normalised (%)",outcome
RIOK3,Rucaparib,OCI-C5x (clear cell),1,61.2,active
RIOK3,Rucaparib,OCI-C5x (clear cell),2,57.7,active
RIOK3,Rucaparib,OCI-C5x (clear cell),3,68.5,active
RIOK3,Rucaparib,OCI-P5x (serous),1,121,inactive
RIOK3,Rucaparib,OCI-P5x (serous),2,96,inactive
RIOK3,Rucaparib,OCI-P5x (serous),3,113,inactive
RIOK3,Vehicle,OCI-C5x (clear cell),1,56.8,active
RIOK3,Vehicle,OCI-C5x (clear cell),2,86.1,inactive
RIOK3,Vehicle,OCI-C5x (clear cell),3,68.3,active
RIOK3,Vehicle,OCI-P5x (serous),1,93.7,inactive
RIOK3,Vehicle,OCI-P5x (serous),2,94.3,inactive
RIOK3,Vehicle,OCI-P5x (serous),3,84.4,inactive
NRK,Rucaparib,OCI-C5x (clear cell),1,60.1,active
NRK,Rucaparib,OCI-C5x (clear cell),2,47.3,active
NRK,Rucaparib,OCI-C5x (clear cell),3,52.4,active
NRK,Rucaparib,OCI-P5x (serous),1,82.9,inactive
NRK,Rucaparib,OCI-P5x (serous),2,76.5,active
NRK,Rucaparib,OCI-P5x (serous),3,80.6,inactive
NRK,Vehicle,OCI-C5x (clear cell),1,70.1,active
NRK,Vehicle,OCI-C5x (clear cell),2,75.1,active
NRK,Vehicle,OCI-C5x (clear cell),3,61.2,active
NRK,Vehicle,OCI-P5x (serous),1,83.5,inactive
NRK,Vehicle,OCI-P5x (serous),2,69.2,active
NRK,Vehicle,OCI-P5x (serous),3,78.2,active

4 entries from above, reformatted.
| gene knocked down | rucaparib or vehicle | cell line | technical replicate | viability, normalised (%) | outcome |
| --- | --- | --- | --- | --- | --- |
| NRK | Vehicle | OCI-C5x (clear cell) | 1 | 70.1 | active |
| NRK | Vehicle | OCI-C5x (clear cell) | 2 | 75.1 | active |
| NRK | Vehicle | OCI-C5x (clear cell) | 3 | 61.2 | active |
| NRK | Vehicle | OCI-P5x (serous) | 1 | 83.5 | inactive |
